Results from article PMC8384837.
Where a chain is given by its changes, count along the chain named. This is one part of the list. For some of these results: At the low end of the ranking the order means little. For some of these results: The source does not settle which construct or isoform was used.

Key:
Settings in all cases: yeast three-hybrid, YBZ-1, SC-Leu-His + 0.5 mM 3-AT, 4 days
[1] = target: T1, PUM1 PUF domain R3-THE R4-TFR R7-NPG C935T + R936H + Q939E + N971T + H972F + Q975R + S1079N + N1080P + E1083G (Homo sapiens) (UniProt Q14671)
T1 sequence: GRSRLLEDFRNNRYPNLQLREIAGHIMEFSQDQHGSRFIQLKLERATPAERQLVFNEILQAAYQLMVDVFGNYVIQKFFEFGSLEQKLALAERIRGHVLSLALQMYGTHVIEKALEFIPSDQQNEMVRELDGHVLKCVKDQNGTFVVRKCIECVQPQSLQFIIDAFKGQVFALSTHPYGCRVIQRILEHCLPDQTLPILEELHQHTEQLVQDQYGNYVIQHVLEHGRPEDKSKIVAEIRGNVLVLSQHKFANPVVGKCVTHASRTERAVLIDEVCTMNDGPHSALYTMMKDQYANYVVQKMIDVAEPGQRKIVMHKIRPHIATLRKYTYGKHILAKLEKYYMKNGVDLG

[2] = target: T2, PUM1 PUF domain R3-THE R4-TFR C935T + R936H + Q939E + N971T + H972F + Q975R (UniProt Q14671)
T2 sequence: T1 sequence with N252S, P253N, G256E

[3] = target: T3, PUM1 PUF domain R5-PHQ R6-SWD C1007P + R1008H + N1043S + Y1044W + Q1047D (UniProt Q14671)
T3 sequence: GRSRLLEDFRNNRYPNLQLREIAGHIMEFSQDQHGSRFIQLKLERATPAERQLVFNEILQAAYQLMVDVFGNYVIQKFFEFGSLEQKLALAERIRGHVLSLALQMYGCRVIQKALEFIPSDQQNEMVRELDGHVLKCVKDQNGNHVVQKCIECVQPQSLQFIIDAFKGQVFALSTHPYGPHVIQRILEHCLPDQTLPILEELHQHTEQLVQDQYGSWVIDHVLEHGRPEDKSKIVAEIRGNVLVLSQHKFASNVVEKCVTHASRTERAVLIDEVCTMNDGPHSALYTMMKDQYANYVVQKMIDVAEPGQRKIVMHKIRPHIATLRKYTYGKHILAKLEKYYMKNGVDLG

[4] = target: T4, PUM1 PUF domain R6-SWD R7-NPG N1043S + Y1044W + Q1047D + S1079N + N1080P + E1083G (Homo sapiens) (UniProt Q14671)
T4 sequence: T3 sequence with P180C, H181R, S252N, N253P, E256G

[5] = target: T5, PUM1 PUF domain R5-PHQ R6-SWD C1007P + R1008H + N1043S + Y1044W + Q1047D (Homo sapiens) (UniProt Q14671)
T5 sequence: T3 sequence

**Q.** For “GGCUAGAACUAGUGGAUCCCCCGGCGCCCGGCGGCUCGAGCCCGGGUAAGUUGUAGACGUCUGCAUGCCGCCGGGCGCCAUGCCUGCAGGUCGACUCUAGAAAACAUG”, which binding signal (log2 enrichment (interaction score)) [1] is on record?
**A.** < -1.51

**Q.** Which binding signal (log2 enrichment (interaction score)) [2] does the source give for “GGCUAGAACUAGUGGAUCCCCCGGCGCCCGGCGGCUCGAGCCCGGGUAAGUGCAGGUAGUCUGCAUGCCGCCGGGCGCCAUGCCUGCAGGUCGACUCUAGAAAACAUG” here?
**A.** -6.96

**Q.** What about the binding signal (log2 enrichment (interaction score)) [3] of the same sequence?
**A.** < -6.89

**Q.** And the binding signal (log2 enrichment (interaction score)) [4]?
**A.** -1.11

**Q.** “GGCUAGAACUAGUGGAUCCCCCGGCGCCCGGCGGCUCGAGCCCGGGUAAGUUGAUAUCGUCUGCAUGCCGCCGGGCGCCAUGCCUGCAGGUCGACUCUAGAAAACAUG” was tested. Which binding signal (log2 enrichment (interaction score)) [1] did it give?
**A.** < -1.05

**Q.** Which binding signal (log2 enrichment (interaction score)) [1] does the source give for “GGCUAGAACUAGUGGAUCCCCCGGCGCCCGGCGGCUCGAGCCCGGGUAAGGUGAAUUAGUCUGCAUGCCGCCGGGCGCCAUGCCUGCAGGUCGACUCUAGAAAACAUG” here?
**A.** -1.95

**Q.** “GGCUAGAACUAGUGGAUCCCCCGGCGCCCGGCGGCUCGAGCCCGGGUAAGACGGAAUCGUCUGCAUGCCGCCGGGCGCCAUGCCUGCAGGUCGACUCUAGAAAACAUG” was tested. Which binding signal (log2 enrichment (interaction score)) [1] did it give?
**A.** -1.07

**Q.** For “GGCUAGAACUAGUGGAUCCCCCGGCGCCCGGCGGCUCGAGCCCGGGUAAGUUCAAAUAGUCUGCAUGCCGCCGGGCGCCAUGCCUGCAGGUCGACUCUAGAAAACAUG”, which binding signal (log2 enrichment (interaction score)) [2] is on record?
**A.** -6.07

**Q.** And the binding signal (log2 enrichment (interaction score)) [3]?
**A.** -7.67

**Q.** And the binding signal (log2 enrichment (interaction score)) [4]?
**A.** -1.39

**Q.** With “GGCUAGAACUAGUGGAUCCCCCGGCGCCCGGCGGCUCGAGCCCGGGUAAGUUUAAAGGGUCUGCAUGCCGCCGGGCGCCAUGCCUGCAGGUCGACUCUAGAAAACAUG” as the sequence, how does the binding signal (log2 enrichment (interaction score)) [1] read?
**A.** -1.3

**Q.** How did the binding signal (log2 enrichment (interaction score)) [1] turn out when “GGCUAGAACUAGUGGAUCCCCCGGCGCCCGGCGGCUCGAGCCCGGGUAAGGGGACAUAGUCUGCAUGCCGCCGGGCGCCAUGCCUGCAGGUCGACUCUAGAAAACAUG” was run?
**A.** -1.32

**Q.** What about the binding signal (log2 enrichment (interaction score)) [3] of the same sequence?
**A.** < -7.29

**Q.** Which results are given for “GGCUAGAACUAGUGGAUCCCCCGGCGCCCGGCGGCUCGAGCCCGGGUAAGCGGCGAUUGUCUGCAUGCCGCCGGGCGCCAUGCCUGCAGGUCGACUCUAGAAAACAUG”?
**A.** binding signal (log2 enrichment (interaction score)) [1]: -0.51; binding signal (log2 enrichment (interaction score)) [3]: -7

**Q.** How did the binding signal (log2 enrichment (interaction score)) [2] turn out when “GGCUAGAACUAGUGGAUCCCCCGGCGCCCGGCGGCUCGAGCCCGGGUAAGUCUACGUGGUCUGCAUGCCGCCGGGCGCCAUGCCUGCAGGUCGACUCUAGAAAACAUG” was run?
**A.** -7.09

**Q.** And the binding signal (log2 enrichment (interaction score)) [4]?
**A.** -1.09

**Q.** Which binding signal (log2 enrichment (interaction score)) [2] does the source give for “GGCUAGAACUAGUGGAUCCCCCGGCGCCCGGCGGCUCGAGCCCGGGUAAGUGUAAUAGGUCUGCAUGCCGCCGGGCGCCAUGCCUGCAGGUCGACUCUAGAAAACAUG” here?
**A.** -7.19

**Q.** And the binding signal (log2 enrichment (interaction score)) [4]?
**A.** -1.48

**Q.** “GGCUAGAACUAGUGGAUCCCCCGGCGCCCGGCGGCUCGAGCCCGGGUAAGUUUACGACGUCUGCAUGCCGCCGGGCGCCAUGCCUGCAGGUCGACUCUAGAAAACAUG” was tested. Which binding signal (log2 enrichment (interaction score)) [2] did it give?
**A.** -6.14

**Q.** And the binding signal (log2 enrichment (interaction score)) [4]?
**A.** -0.48

**Q.** With “GGCUAGAACUAGUGGAUCCCCCGGCGCCCGGCGGCUCGAGCCCGGGUAAGGUUUAUUUGUCUGCAUGCCGCCGGGCGCCAUGCCUGCAGGUCGACUCUAGAAAACAUG” as the sequence, how does the binding signal (log2 enrichment (interaction score)) [1] read?
**A.** -1.3

**Q.** For “GGCUAGAACUAGUGGAUCCCCCGGCGCCCGGCGGCUCGAGCCCGGGUAAGUUAAAGAGGUCUGCAUGCCGCCGGGCGCCAUGCCUGCAGGUCGACUCUAGAAAACAUG”, which binding signal (log2 enrichment (interaction score)) [1] is on record?
**A.** -1.21

**Q.** “GGCUAGAACUAGUGGAUCCCCCGGCGCCCGGCGGCUCGAGCCCGGGUAAGUUGACUAAGUCUGCAUGCCGCCGGGCGCCAUGCCUGCAGGUCGACUCUAGAAAACAUG” was tested. Which binding signal (log2 enrichment (interaction score)) [2] did it give?
**A.** -6.66

**Q.** What about the binding signal (log2 enrichment (interaction score)) [3] of the same sequence?
**A.** -7.78

**Q.** And the binding signal (log2 enrichment (interaction score)) [4]?
**A.** -1.41

**Q.** How did the binding signal (log2 enrichment (interaction score)) [2] turn out when “GGCUAGAACUAGUGGAUCCCCCGGCGCCCGGCGGCUCGAGCCCGGGUAAGUCUGAGUAGUCUGCAUGCCGCCGGGCGCCAUGCCUGCAGGUCGACUCUAGAAAACAUG” was run?
**A.** -8.04

**Q.** And the binding signal (log2 enrichment (interaction score)) [3]?
**A.** -6.87

**Q.** What about the binding signal (log2 enrichment (interaction score)) [4] of the same sequence?
**A.** -1.45

**Q.** How did the binding signal (log2 enrichment (interaction score)) [2] turn out when “GGCUAGAACUAGUGGAUCCCCCGGCGCCCGGCGGCUCGAGCCCGGGUAAGUGUUCGAAGUCUGCAUGCCGCCGGGCGCCAUGCCUGCAGGUCGACUCUAGAAAACAUG” was run?
**A.** -6.08

**Q.** What about the binding signal (log2 enrichment (interaction score)) [4] of the same sequence?
**A.** -0.7

**Q.** How did the binding signal (log2 enrichment (interaction score)) [1] turn out when “GGCUAGAACUAGUGGAUCCCCCGGCGCCCGGCGGCUCGAGCCCGGGUAAGUGCAUGAGGUCUGCAUGCCGCCGGGCGCCAUGCCUGCAGGUCGACUCUAGAAAACAUG” was run?
**A.** < -0.23

**Q.** “GGCUAGAACUAGUGGAUCCCCCGGCGCCCGGCGGCUCGAGCCCGGGUAAGGUUGGAGCGUCUGCAUGCCGCCGGGCGCCAUGCCUGCAGGUCGACUCUAGAAAACAUG” was tested. Which binding signal (log2 enrichment (interaction score)) [1] did it give?
**A.** -0.87

**Q.** Which binding signal (log2 enrichment (interaction score)) [1] does the source give for “GGCUAGAACUAGUGGAUCCCCCGGCGCCCGGCGGCUCGAGCCCGGGUAAGCAGGGGUGGUCUGCAUGCCGCCGGGCGCCAUGCCUGCAGGUCGACUCUAGAAAACAUG” here?
**A.** -1.54

**Q.** “GGCUAGAACUAGUGGAUCCCCCGGCGCCCGGCGGCUCGAGCCCGGGUAAGCUGAAACAGUCUGCAUGCCGCCGGGCGCCAUGCCUGCAGGUCGACUCUAGAAAACAUG” was tested. Which binding signal (log2 enrichment (interaction score)) [1] did it give?
**A.** -1.47

**Q.** And the binding signal (log2 enrichment (interaction score)) [3]?
**A.** -6.7

**Q.** What does the source list for “GGCUAGAACUAGUGGAUCCCCCGGCGCCCGGCGGCUCGAGCCCGGGUAAGGAUACAUAGUCUGCAUGCCGCCGGGCGCCAUGCCUGCAGGUCGACUCUAGAAAACAUG”?
**A.** binding signal (log2 enrichment (interaction score)) [2]: < -6.74; binding signal (log2 enrichment (interaction score)) [4]: -0.24

**Q.** For “GGCUAGAACUAGUGGAUCCCCCGGCGCCCGGCGGCUCGAGCCCGGGUAAGUUUUCGGCGUCUGCAUGCCGCCGGGCGCCAUGCCUGCAGGUCGACUCUAGAAAACAUG”, which binding signal (log2 enrichment (interaction score)) [1] is on record?
**A.** -1.4

**Q.** Which binding signal (log2 enrichment (interaction score)) [1] does the source give for “GGCUAGAACUAGUGGAUCCCCCGGCGCCCGGCGGCUCGAGCCCGGGUAAGCUGAAGAAGUCUGCAUGCCGCCGGGCGCCAUGCCUGCAGGUCGACUCUAGAAAACAUG” here?
**A.** < -1.74

**Q.** And the binding signal (log2 enrichment (interaction score)) [3]?
**A.** < -8.34

**Q.** Which results are given for “GGCUAGAACUAGUGGAUCCCCCGGCGCCCGGCGGCUCGAGCCCGGGUAAGUGGAAUAGGUCUGCAUGCCGCCGGGCGCCAUGCCUGCAGGUCGACUCUAGAAAACAUG”?
**A.** binding signal (log2 enrichment (interaction score)) [1]: -1.49; binding signal (log2 enrichment (interaction score)) [5]: -1.31

**Q.** Which results are given for “GGCUAGAACUAGUGGAUCCCCCGGCGCCCGGCGGCUCGAGCCCGGGUAAGUUUAUUUUGUCUGCAUGCCGCCGGGCGCCAUGCCUGCAGGUCGACUCUAGAAAACAUG”?
**A.** binding signal (log2 enrichment (interaction score)) [2]: -7.91; binding signal (log2 enrichment (interaction score)) [4]: -0.77

**Q.** “GGCUAGAACUAGUGGAUCCCCCGGCGCCCGGCGGCUCGAGCCCGGGUAAGCUUACGGAGUCUGCAUGCCGCCGGGCGCCAUGCCUGCAGGUCGACUCUAGAAAACAUG” was tested. Which binding signal (log2 enrichment (interaction score)) [1] did it give?
**A.** 5.57
